Measurements from article PMC4564936.
Results are given in words; binding and its absence hold for the method and conditions named.

Protein sequences, listed by entry. Tags and fused reporters are not part of them.
UniProt P0ACD4: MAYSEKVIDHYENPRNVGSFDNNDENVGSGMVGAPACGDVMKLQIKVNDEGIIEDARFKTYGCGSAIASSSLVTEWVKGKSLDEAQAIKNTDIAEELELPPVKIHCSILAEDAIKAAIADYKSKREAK

Biological target: Escherichia coli IscU (E. coli) (UniProt P0ACD4)
Test: condition: only prepared anaerobically with 10 mM TCEP; 3.0 or 6.0 mg/mL; SAXS; prepared in an anaerobic chamber, dialysed against degassed buffer with 10 mM TCEP, sealed sample cell; 3.0 or 6.0 mg/mL; variable temperature; molecular mass by the I(0) and Vc methods; both purified

Substance: Escherichia coli IscU (from UniProt P0ACD4 1-128)
- binding: no binding
